According to the supplement of paper PMC4604168 (melanoma cell lines):
This is one part of the list. Many values rest on one well or one pass, so single values are uncertain.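 Imaging used 1,536-well plates; nuclei positive for cleaved PARP by antibody were divided by total DNA-stained nuclei to yield the apoptosis fraction. Doses for screening kept most cells viable, and cell lines differ markedly in resting and induced cleaved-PARP levels.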

What follows are molecules tested on CBRC016 (line from a melanoma biopsy) (assay: cleaved PARP positive nuclei fraction relative to DMSO control; melanoma cells; higher = more apoptosis). Settings: library dose: low library concentration; 72 h.

| SMILES | cleaved PARP positive nuclei fraction |
| --- | --- |
| O=C(/C=C/c1cccnc1)NCCCCC1CCN(C(=O)c2ccccc2)CC1 + CC(C)(C)c1cnc(CSc2cnc(NC(=O)C3CCNCC3)s2)o1 [SNS-032] (first compound 0.01 µM, partner dose 0.01 µM) | 893% |
| Cc1cn(-c2cc(NC(=O)c3ccc(C)c(Nc4nccc(-c5cccnc5)n4)c3)cc(C(F)(F)F)c2)cn1 [nilotinib] + O=C(CCCCCCC(=O)Nc1ccccc1)NO [vorinostat] (first compound 0.2 µM, partner dose 0.08 µM) | 106% |
| N#CC[C@H](C1CCCC1)n1cc(-c2ncnc3[nH]ccc23)cn1 [ruxolitinib] + O=C(O)c1ccc(-c2c[nH]c3ncc(-c4ccccc4)cc23)cc1C1CCCC1 [GSK650394] (first compound 1 µM, partner dose 0.16 µM) | 114% |
| O=C(Nc1cc(C(F)(F)F)cc(C(F)(F)F)c1)c1cc(Cl)ccc1O + CO[C@@H]1[C@H](N(C)C(=O)c2ccccc2)C[C@H]2O[C@]1(C)n1c3ccccc3c3c4c(c5c6ccccc6n2c5c31)C(=O)NC4 [Midostaurin] (first compound 0.016 µM, partner dose 0.08 µM) | 25.8% |
| N#CC[C@H](C1CCCC1)n1cc(-c2ncnc3[nH]ccc23)cn1 [ruxolitinib] + Cc1ccc(NC(=O)c2cccc(N(C)C)c2)cc1NC(=O)c1ccc(O)cc1 [ZM336372] (first compound 1 µM, partner dose 2 µM) | 170% |
| N#CC[C@H](C1CCCC1)n1cc(-c2ncnc3[nH]ccc23)cn1 [ruxolitinib] + CC1(C)NC(=O)N(c2ccc([N+](=O)[O-])c(C(F)(F)F)c2)C1=O [nilutamide] (first compound 1 µM, partner dose 1 µM) | 70.1% |
| CC[C@]1(O)C[C@H]2CN(CCc3c([nH]c4ccccc34)[C@@](C(=O)OC)(c3cc4c(cc3OC)N(C=O)[C@H]3[C@@](O)(C(=O)OC)[C@H](OC(C)=O)[C@]5(CC)C=CCN6CC[C@]43[C@@H]65)C2)C1 [vincristine] + O=C(Nc1cccc(Cl)c1)Nc1ncc(CCNc2ncnc3ccsc23)s1 [SNS314] (first compound 0.0001 µM, partner dose 0.0008 µM) | 76.1% |
| Cc1cn(-c2cc(NC(=O)c3ccc(C)c(Nc4nccc(-c5cccnc5)n4)c3)cc(C(F)(F)F)c2)cn1 [nilotinib] + CC(C)(C)c1cnc(CSc2cnc(NC(=O)C3CCNCC3)s2)o1 [SNS-032] (first compound 0.2 µM, partner dose 0.01 µM) | 123% |
| COc1cc([C@@H]2c3cc4c(cc3[C@@H](O[C@@H]3O[C@@H]5CO[C@@H](C)O[C@H]5[C@H](O)[C@H]3O)[C@H]3COC(=O)[C@H]23)OCO4)cc(OC)c1O [etoposide] + NC(=O)Nc1cc(-c2cccc(F)c2)sc1C(=O)N[C@H]1CCCNC1 [AZD7762] (first compound 0.02 µM, partner dose 0.02 µM) | 124% |
| Cc1cc(Nc2cc(N3CCN(C)CC3)nc(Sc3ccc(NC(=O)C4CC4)cc3)n2)n[nH]1 [Tozasertib] + Cn1cncc1[C@@](N)(c1ccc(Cl)cc1)c1ccc2c(c1)c(-c1cccc(Cl)c1)cc(=O)n2C [tipifarnib] (first compound 0.006 µM, partner dose 0.01 µM) | 46.5% |
| Cc1ccc(Nc2nccc(N(C)c3ccc4c(C)n(C)nc4c3)n2)cc1S(N)(=O)=O [Pazopanib] + Cn1cncc1[C@@](N)(c1ccc(Cl)cc1)c1ccc2c(c1)c(-c1cccc(Cl)c1)cc(=O)n2C [tipifarnib] (first compound 0.4 µM, partner dose 0.01 µM) | 148% |
| Cc1cc(Nc2cc(N3CCN(C)CC3)nc(Sc3ccc(NC(=O)C4CC4)cc3)n2)n[nH]1 [Tozasertib] + Cc1ccc(NC(=O)c2cccc(N(C)C)c2)cc1NC(=O)c1ccc(O)cc1 [ZM336372] (first compound 0.006 µM, partner dose 2 µM) | 159% |
| CC[C@]1(O)C[C@H]2CN(CCc3c([nH]c4ccccc34)[C@@](C(=O)OC)(c3cc4c(cc3OC)N(C=O)[C@H]3[C@@](O)(C(=O)OC)[C@H](OC(C)=O)[C@]5(CC)C=CCN6CC[C@]43[C@@H]65)C2)C1 [vincristine] + CC1(C)NC(=O)N(c2ccc([N+](=O)[O-])c(C(F)(F)F)c2)C1=O [nilutamide] (first compound 0.0001 µM, partner dose 1 µM) | 224% |

Rewritten as labelled records: entries from further up
Cc1cn(-c2cc(NC(=O)c3ccc(C)c(Nc4nccc(-c5cccnc5)n4)c3)cc(C(F)(F)F)c2)cn1 [nilotinib] + O=C(CCCCCCC(=O)Nc1ccccc1)NO [vorinostat] (first compound 0.2 µM, partner dose 0.08 µM)
  cleaved PARP positive nuclei fraction: 106%
Cc1cc(Nc2cc(N3CCN(C)CC3)nc(Sc3ccc(NC(=O)C4CC4)cc3)n2)n[nH]1 [Tozasertib] + Cc1ccc(NC(=O)c2cccc(N(C)C)c2)cc1NC(=O)c1ccc(O)cc1 [ZM336372] (first compound 0.006 µM, partner dose 2 µM)
  cleaved PARP positive nuclei fraction: 159%
